The text below walks through data of the supplement of paper PMC8256030.

Values joined by “and” are separate entries in the source; they are usually repeats but may differ in a detail not shown here. Equal values may be shown once. Where a name gives a salt, the structure may show the parent alone. Some of the results follow. This data set is noisy: repeats of one test often differ as much as different tests do.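 HEK293T cells were given each compound shortly before transfection with a reporter in which red mCherry is followed by the SARS-CoV-2 frameshift element and then GFP in the −1 frame, so GFP appears only after frameshifting.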

The subject of the experiment is HEK293T. Kind of experiment: percent viability (nuclei count) relative to control; higher = more viable cells. The note with it: 10 µM; 24 h.
Turning to `CC1=C(/C=C/C(C)=C/C=C/C(C)=C\C(=O)O)C(C)(C)CCC1` [isotretinoin], the percent viability worked out at 204%. The figure for `CC(C)(Oc1ccc(Cl)cc1)C(=O)OCc1cccnc1` [nicofibrate] is 211%; for `C=C[C@]1(C)C[C@@H](OC(=O)CS[C@@H]2C[C@H]3CC[C@@H](C2)N3C)[C@]2(C)[C@H](C)CC[C@]3(CCC(=O)[C@H]32)[C@@H](C)[C@@H]1O` [retapamulin] it is 329%. The figure for `C[C@@H](O)[C@H]1C(=O)N2C(C(=O)O)=C(SCCNC=N)C[C@H]12` [Imipenem] is 125%; for `CC(=O)N(CC(O)CN(C(C)=O)c1c(I)c(C(=O)NCC(O)CO)c(I)c(C(=O)NCC(O)CO)c1I)c1c(I)c(C(=O)NCC(O)CO)c(I)c(C(=O)NCC(O)CO)c1I` (stereo not given) [iodixanol] it is 111%; for `OC[C@H]1O[C@H](O[C@]2(CCl)O[C@H](CCl)[C@@H](O)[C@@H]2O)[C@H](O)[C@@H](O)[C@H]1Cl` it is 149%.

As for `CCCCOc1cc(C(=O)NCCN(CC)CC)c2ccccc2n1` [cinchocaine], the percent viability came to 138%. The figure for `Cc1c(Nc2ncccc2C(=O)O)cccc1C(F)(F)F` is 315%; for `CCN1CCC[C@H]1CNC(=O)c1c(OC)ccc(Br)c1OC` [remoxipride] it is 370%; for `CC(C)(CO)CCCCCCC(C)(C)CO` [gemcadiol] it is 59.7%.

Regarding `Cc1onc(NS(=O)(=O)c2ccccc2-c2ccc(-c3ncco3)cc2CN(C)C(=O)CC(C)(C)C)c1C` [edonentan], the percent viability worked out at 134%. The value for `CCCCC(=O)O[C@]1(C(=O)CO)[C@@H](C)C[C@H]2[C@@H]3CCC4=CC(=O)C=C[C@]4(C)[C@@]3(F)[C@@H](O)C[C@@]21C` was 212%; that for `C[C@@H]1C[C@H]2[C@@H]3C[C@H](F)C4=CC(=O)C=C[C@]4(C)[C@@]3(F)[C@@H](O)C[C@]2(C)[C@@]1(O)C(=O)COC(=O)C(C)(C)C` was 154%; that for `Cc1c(CC(=O)O)sc2ccc(Cl)cc12` [tianafac] was 165%. The value for `N#Cc1ccc(C(c2ccc(C#N)cc2)n2cncn2)cc1` [letrozole] was 136% and 269%. Regarding `CC1(C)[C@@H](OC(=O)CCC(=O)O)CC[C@]2(C)[C@H]3C(=O)C=C4[C@@H]5C[C@@](C)(C(=O)O)CC[C@]5(C)CC[C@@]4(C)[C@]3(C)CC[C@@H]12`, the percent viability stood at 96.2%. The figure for `CC[C@@H]1C(=O)OC[C@@H]1Cc1cncn1C` [Pilocarpine·HCl] is 284%; for `Cc1nccnc1N1CCCCC1` it is 145%. The figure for `O=C(O)c1ccccc1Nc1cccc(Cl)c1Cl` [clofenamic acid] is 133%. The figure for `CN(C)[C@@H]1C(=O)C(C(N)=O)=C(O)[C@@]2(O)C(=O)C3=C(O)c4c(O)ccc(Cl)c4[C@@H](O)[C@H]3C[C@@H]12` is 155%; for `CC(C)(Sc1cc(C(C)(C)C)c(O)c(C(C)(C)C)c1)Sc1cc(C(C)(C)C)c(O)c(C(C)(C)C)c1` [probucol] it is 292%. Regarding `COc1ccc2c(O[C@@H]3C[C@H]4C(=O)N[C@]5(C(=O)NS(=O)(=O)C6(C)CC6)C[C@H]5/C=C\CCCCC[C@H](NC(=O)c5ccn(C)n5)C(=O)N4C3)cc(OC(C)C)nc2c1C`, the percent viability came to 125%. For the compound `COCCOc1cnc(NS(=O)(=O)c2ccccc2)nc1` [glymidine], the percent viability amounted to 240%. The value for `COc1cc([C@@H]2c3cc4c(cc3[C@@H](O[C@@H]3O[C@@H]5CO[C@@H](C)O[C@H]5[C@H](O)[C@H]3O)[C@H]3COC(=O)[C@H]23)OCO4)cc(OC)c1O` [Etoposide] was 194%; that for `CC(C)CC(=O)N[C@H](C(=O)N[C@H](C(=O)N[C@@H](CC(C)C)[C@@H](O)CC(=O)N[C@@H](C)C(=O)N[C@@H](CC(C)C)[C@@H](O)CC(=O)O)C(C)C)C(C)C` [pepstatin] was 129%; that for `CN(C)[C@@H]1C(=O)C(C(N)=O)=C(O)[C@@]2(O)C(=O)C3=C(O)c4c(O)ccc(Cl)c4[C@@H](O)[C@H]3C[C@@H]12` [Demeclocycline, Declomycin] was 341%. For `CCN(CC)CCOCCOC(=O)C1(c2ccccc2)CCCC1` [pentoxyverine], the percent viability was determined as 290%.

In the case of `CC(O)(CC(=O)O)CC(=O)O` [meglutol], the percent viability amounted to 346%. The figure for `C[C@H]1O[C@@H](O[C@H]2[C@@H](O)C[C@H](O[C@H]3[C@@H](O)C[C@H](O[C@H]4CC[C@@]5(C)[C@H](CC[C@@H]6[C@@H]5CC[C@]5(C)[C@@H](C7=CC(=O)OC7)CC[C@]65O)C4)O[C@@H]3C)O[C@@H]2C)C[C@H](O)[C@@H]1O` [Digitoxin] is 5.17%; for `N[C@@H](CSCC(=O)O)C(=O)O` [Carbocisteine] it is 270%; for `CN(N=O)C(=O)N[C@@H]1[C@@H](O)[C@H](O)[C@@H](CO)O[C@@H]1O` [streptozocin] it is 145%. The figure for `Cc1ccc(F)cc1C(=O)Nc1ccc(C(=O)N2Cc3cccn3Cc3ccccc32)c(Cl)c1` [lixivaptan] is 184%. The value for `CC(C)[N+]1(C)[C@@H]2CC[C@H]1CC(OC(=O)C(CO)c1ccccc1)C2` (stereo not given in full) [Ipratropium·Br] was 264%. As to `O=C(O)c1ccccc1Nc1cc(Cl)ccc1C(=O)O` [lobenzarit], the percent viability came to 237%.

With `Cc1ccccc1C(=O)Nc1ccc(C(=O)N2CCCC(O)c3cc(Cl)ccc32)c(C)c1` (stereo not given) [tolvaptan], the percent viability worked out at 420%. The figure for `CC[C@H]1OC(=O)[C@H](C)[C@@H](O[C@H]2C[C@@](C)(OC)[C@@H](O)[C@H](C)O2)[C@H](C)[C@@H](O[C@@H]2O[C@H](C)C[C@H](N(C)C)[C@H]2O)[C@](C)(O)C[C@@H](C)[C@@H]2N[C@@H](COCCOC)O[C@H]([C@H]2C)[C@]1(C)O` [dirithromycin] is 347% and 174% and 190%; for `CC(=O)OCC1OC([S-])C(OC(C)=O)C(OC(C)=O)C1OC(C)=O.CC[PH+](CC)CC.[Au+]` (stereo not given) [Auranofin] it is 32%; for `O=S(=O)(O)c1cc(I)c(O)c2ncccc12` [chiniofon] it is 94.4%. Regarding `CN1CCN(C2=Nc3ccccc3Cc3ccccc32)CC1` [perlapine], the percent viability was found to be 77.7%.

As to `C[C@]12CCC(=O)C=C1C=C[C@@H]1[C@@H]2CC[C@@]2(C)[C@H]1CC[C@@]21CCC(=O)O1` [Canrenone], the percent viability was determined as 228%.
